Results are given in words; binding and its absence hold for the method and conditions named. Some results given as binding are weak or reduced against the parent protein; the word gives no strength. Sequences can lack the tags named with a protein.
How the values were obtained:
[1] = biological target: T1, Recombinant canine CD40 extracellular domain with human IgG1 Fc domain tag (canine; human) (UniProt Q7YRL5); experiment: pair-wise SPR, caCD40-Fc immobilised
T1 sequence (looked up): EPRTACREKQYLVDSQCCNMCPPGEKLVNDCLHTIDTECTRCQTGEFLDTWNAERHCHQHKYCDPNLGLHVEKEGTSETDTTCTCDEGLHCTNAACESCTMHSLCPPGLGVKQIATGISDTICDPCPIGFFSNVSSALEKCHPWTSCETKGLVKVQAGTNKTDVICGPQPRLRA

Chains of the proteins cited; added tags and fusions are not shown. Residues count along the entry.
UniProt O97626, residues 112-260: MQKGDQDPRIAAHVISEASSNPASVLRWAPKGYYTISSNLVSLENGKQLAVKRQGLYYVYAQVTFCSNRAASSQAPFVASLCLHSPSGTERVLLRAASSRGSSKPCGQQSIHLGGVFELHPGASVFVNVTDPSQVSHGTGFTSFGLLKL

[2] = biological target: T1, Recombinant canine CD40 extracellular domain with human IgG1 Fc domain tag (canine; human); experiment: pair-wise SPR, caCD40-Fc immobilised, SVX-2001 injected first, caCD40L second
[3] = biological target: T1, Recombinant canine CD40 extracellular domain with human IgG1 Fc domain tag (canine; human); experiment: SPR pair-wise binding, caCD40-Fc on the chip already loaded with SVX-2001 at 25 µg/ml

Measured: binding

canine CD40 ligand (from UniProt O97626 112-260)
binds: all assays above

Reference: patent US20260146099A1 (SELVAX, published 2026)
